The text below walks through data of paper PMC8051746.

The target of this assay is EGFR (human (endogenous in granulosa cells)) (UniProt P00533). The experiment in a line: co-IP; endogenous proteins in non-denaturing lysate of granulosa cells; antibody overnight at 4°C, protein-A/G beads 1 hour at 4°C, three washes, Western blot; precipitating antibody not named.

These are yes or no findings as the source states them, for the method shown. In cells and extracts the contact can be indirect. Some entries that bind do so weakly or less than the wild type.

B1: SPRY2 (protein, UniProt O43597 1-315)
chain: MEARAQSGNGSQPLLQTPRDGGRQRGEPDPRDALTQQVHVLSLDQIRAIRNTNEYTEGPTVVPRPGLKPAPRPSTQHKHERLHGLPEHRQPPRLQHSQVHSSARAPLSRSISTVSSGSRSSTRTSTSSSSSEQRLLGSSFSSGPVADGIIRVQPKSELKPGELKPLSKEDLGLHAYRCEDCGKCKCKECTYPRPLPSDWICDKQCLCSAQNVIDYGTCVCCVKGLFYHCSNDDEDNCADNPCSCSQSHCCTRWSAMGVMSLFLPCLWCYLPAKGCLKLCQGCYDRVNRPGCRCKNSNTVCCKVPTVPPRNFEKPT
Consider B1, for which the binding result is recorded as “binds”.
